Assay results reported in publication PMC6470603, “Design and Synthesis of Matrine Derivatives as Novel Anti-Pulmonary Fibrotic Agents via Repression of the TGFβ/Smad Pathway” (Molecules, 2019).

System: TGF-β1 induced total collagen accumulation in MRC-5 cells
Assay: Sircol collagen assay: inhibition of TGF-β1-induced total collagen accumulation
Assay type: cell-based, human
Settings: for fold more potent than Pirfenidone (anti-fibrotic IC50): collagen accumulation IC50 versus Pirfenidone; for fold more potent than matrine (anti-fibrotic IC50): collagen accumulation IC50 versus matrine
Experimental: Higher SI values indicates better safety profile.
MRC-5 cells in 1 × 10^5 cells/mL density were seeded in TC treated 96-well plates and allowed to reach confluence for 48 h. The cells were then starved using MEM-NEAA containing 0.2% BSA for 24 h. After starvation, the medium was changed to MEM-NEAA supplemented with 0.2% BSA, 100 μM L-Proline, 100 μM Ascorbic acid, with or without 10 ng/mL TGF-β1 (Peprotech) in the presence of vehicle or different concentrations of compounds. After 48 h incubation, the MRC-5 cells were washed with phosphate buffered saline (PBS) and fixed in −20 °C precooled methanol for 10 min. The cells were than washed with PBS before incubation in 0.1% PSR staining solution (0.1% Sirus red in saturated water solution of picric acid) for 1 h. The staining solution was then removed and the cells were washed with 0.1% acetic acid for three times. 200 μL of 0.1 mol/L sodium hydroxide solution were added to each well and the plates were placed on a rocking platform for 1 h. The optical density (OD) values at 550 nm were determined with an Infinite 2000 spectrophotometer.

Compound | fold more potent than Pirfenidone (anti-fibrotic IC50) | fold more potent than matrine (anti-fibrotic IC50)
O=C1CC(n2ccc3cc(Br)ccc32)C[C@@H]2[C@H]3CCCN4CCC[C@@H](CN12)[C@@H]34 (stereo partly drawn) [3g, 13-(5-bromo-1H-indol-1-yl)-matrine] | 203 fold | 135 fold
O=C1CC(n2ccc3cc(Cl)ccc32)CC2C3CCCN4CCCC(CN12)C34 (stereo not drawn) [3f, 13-(5-chloro-1H-indol-1-yl)-matrine] | 400 fold | 266 fold
O=C1CC(n2ccc3c([N+](=O)[O-])cccc32)C[C@@H]2[C@H]3CCCN4CCC[C@@H](CN12)[C@@H]34 (stereo partly drawn) [3d, 13-(4-nitro-1H-indol-1-yl)-matrine] | 307 fold | 204 fold
